{"source": "patent US6379882B1", "about": "“Method for selecting compounds for treating ischemia-related cellular damage” (Elan Pharmaceuticals, Inc., priority 1998, dated 2002)", "key": {"[1]": {"system": "mitochondrial dysfunction", "conditions": "rat, in vivo; cited from earlier work"}, "[2]": {"system": "hippocampal CA1 region", "conditions": "rat, in vivo, cited from earlier work"}, "[3]": {"system": "Mongolian gerbils", "parameters": "species or system Mongolian gerbils (Meriones unguiculatus)"}, "[4]": {"system": "hippocampal CA1 region", "conditions": "rat, in vivo"}, "[5]": {"system": "gerbils", "conditions": "in vivo; cited from earlier work"}, "[6]": {"system": "gerbils", "conditions": "in vivo; cited from earlier work", "remark": "listed apart in the source"}, "[7]": {"system": "cortical ischemic neuronal damage", "conditions": "rabbit, in vivo; cited from earlier work"}, "[8]": {"system": "focal ischemia", "conditions": "rat, in vivo; cited from earlier work"}, "[9]": {"system": "extracellular glutamate", "conditions": "in vivo; cited from earlier work"}, "[10]": {"system": "retinal ganglion cells", "assay_type": "cell-based, rat"}, "[11]": {"system": "potassium-induced glutamate release in the hippocampus", "conditions": "in vivo; cited from earlier work"}}, "note": "“And” between values parts separate entries of the source, which are not always exact repeats. Equal entries are not always repeated. At least one structure is not confirmed: it was looked up by name or label, or the drawing left a doubt.", "data": [{"smiles": "CSCC[C@@H]1NC(=O)[C@H](CC(C)C)NC(=O)[C@H](CCCNC(=N)N)NC(=O)[C@H](CO)NC(=O)[C@@H]2CSSC[C@@H]3NC(=O)[C@H](CO)NC(=O)CNC(=O)[C@H]([C@@H](C)O)NC(=O)[C@H](CSSC[C@H](N)C(=O)N[C@@H](CCCCN)C(=O)NCC(=O)N[C@@H](CCCCN)C(=O)NCC(=O)N[C@@H](C)C(=O)N[C@@H](CCCCN)C(=O)N2)NC(=O)[C@H](CSSC[C@@H](C(N)=O)NC(=O)[C@H](CCCCN)NC(=O)CNC(=O)[C@H](CO)NC(=O)[C@H](CCCNC(=N)N)NC3=O)NC(=O)[C@H](CC(=O)O)NC(=O)[C@H](Cc2ccc(O)cc2)NC1=O", "note": "[SNX-111]", "values": [{"measurement": "effect on mitochondrial dysfunction", "setting": "[1]", "value": "modulate the impact on mitochondrial dysfunction"}, {"measurement": "time after ischemic insult at which a single intravenous bolus still provided neuroprotection", "setting": "[2]; iv", "value": "up to 24 hr"}, {"measurement": "neuroprotection in the four-vessel occlusion model (in words)", "setting": "[2]", "value": "neuroprotective"}, {"measurement": "time after transient occlusion at which administration is still protective", "setting": "[2]", "value": "up to 24 hours"}, {"measurement": "neuroprotection in in vivo model of global ischemia (in words)", "setting": "[3]", "value": "biologically active"}, {"measurement": "extent of anatomical damage relative to untreated ischemic animals", "setting": "[3]; in vivo", "value": "25% and 30%"}, {"measurement": "extent of damage in hippocampal CA1 region relative to untreated animals", "setting": "[4]", "value": "approximately 30%"}, {"measurement": "ischemia-associated loss of short term memory", "setting": "[5]", "value": "completely prevented"}, {"measurement": "activity level of occluded treated animals at one day", "setting": "[6]", "value": "lower-than baseline values"}, {"measurement": "activity level of occluded treated animals at three days", "setting": "[6]", "value": "near-normal levels of activity"}, {"measurement": "protection against ischemia-induced hyperactivity", "setting": "[6]", "value": "provided protection against ischemia-induced hyperactivity"}, {"measurement": "overall cortical ischemic neuronal damage", "setting": "[7]", "value": "significantly attenuate overall cortical ischemic neuronal damage"}, {"measurement": "neuroprotection in transient middle cerebral artery occlusion focal ischemia (in words)", "setting": "[8]", "value": "neuroprotective"}, {"measurement": "total amount of extracellular glutamate and peak value of glutamate after occlusion", "setting": "[9]", "value": "significantly reduced"}, {"measurement": "protection of oxygen/glucose-deprived RGCs from apoptotic cell death (in words)", "setting": "[10]", "value": "also demonstrated such protective activity"}, {"measurement": "potency in blocking potassium-induced glutamate release, less potent than SNX-230", "setting": "[11]", "value": "3 orders of magnitude"}]}]}
